Test results reported in patent US20210161997A1, “TREATING DISEASES VIA TARGETED MODULATION OF GENE SIGNALING NETWORKS” (Camp4 Therapeutics Corporation, priority 2018, published 2021).
For some assays here: The name of at least one read-out is uncertain. For some assays here: At least one compound was matched to its structure with a doubt left.

Key:
ANGPTL3 = test: RNA-seq of ANGPTL3 expression in compound-treated primary human hepatocytes; assay type: cell-based; conditions: additional compounds (Table 13)
Description: Human hepatocytes were obtained from two donors from Massachusetts General Hospital, namely MGH54 and MGH63, and one donor from Lonza, namely HUM4111B. Cryopreserved hepatocytes were cultured in plating media for 16 hours, transferred to maintenance media for 4 hours. Cultured on serum-free media for 2 hours, then a compound was added. The hepatocytes were maintained on the serum-free media for 16 hours prior to gene expression analysis. Primary human hepatocytes were stored in the vapor phase of a liquid nitrogen freezer (about −130° C.).
Human hepatocytes cultured as described above were plated in 24-well format, adding 375,000 cells per well in a volume of 500 ul plating medium. Four hours before treatment, cells were washed with PBS and the medium was changed to either: fresh maintenance medium (complete) or modified maintenance medium.
Compound stocks were prepared at 1000× final concentration and added in a 2-step dilution to the medium to reduce risk of a compound precipitating out of solution when added to the cells, and to ensure reasonable pipetting volumes. One at a time, each compound was first diluted 10-fold in warm (about 37° C.) modified maintenance medium (initial dilution=ID), mixed by vortexing, and the ID was diluted 100-fold into the cell culture (e.g. 5.1 ul into 1 well of a 24-well plate containing 0.5 mL medium). The plate was mixed by carefully swirling and after all wells were treated and returned to the incubator overnight. If desired, separate plates/wells were treated with vehicle-only controls and/or positive controls. If using multi-well plates, controls were included on each plate. After about 18 hours, cells were harvested for further analysis, e.g., ChIP-seq, RNA-seq, ATAC-seq, etc. […]
For mRNA isolation and library prep, the NEBNext Poly(A) mRNA Magnetic Isolation Module and Directional Prep kit was used. RNA isolated from cells above was quantified, and prepared in […] of each sample in 50 μl of nuclease-free water. […]
All pass filter reads from each sample were mapped against the human genome (assembly GRCh38/GCA_000001405.15 “no alt” analysis set merged with hs38d1/GCA_000786075.2) using two pass mapping via STAR version 2.5.3a (alignment parameters alignIntronMin=20; alignIntronMax=1000000; outFilterMismatchNmax=999; outFilterMismatchNoverLmax=0.05; outFilterType=BySJout; outFilterMultimapNmax=20; alignSJoverhangMin=8; alignSJDBoverhangMin=1; alignMatesGapMax=1000000) (Dobin et al., Bioinformatics (2012) 29(1):15-21). […] Standard QC were applied (read integrity, mapping statistics, library complexity, fragment bias) to remove unsatisfactory samples.

SERPINC1 mRNA = test: Quantitative PCR of SERPINC1 mRNA in primary human hepatocytes (Lonza Hu4282) treated with compounds; assay type: cell-based; conditions: 72 h treatment, relative to DMSO control (FIG. 7)

SMILES | ANGPTL3-LINEAR FOLD CHANGE (ANGPTL3) | ANGPTL3-LINEAR FOLD CHANGE (ANGPTL3; listed as MI-773 (SAR405838)) | SERPINC1 mRNA change in response to compound (SERPINC1 mRNA) | ANGPTL3-LINEAR FOLD CHANGE (ANGPTL3; listed as Linifanib)
CC(C)(C)C[C@@H]1N[C@@H](C(=O)N[C@H]2CC[C@H](O)CC2)[C@H](c2cccc(Cl)c2F)[C@]12C(=O)Nc1cc(Cl)ccc12 [MI-773] | 0.473 | 0.2017 | – | –
COc1cccc2cc(-c3nc([C@H]4CC[C@H](C(=O)O)CC4)n4ncnc(N)c34)[nH]c12 [compound 308 (OSI-027)] | – | – | dose dependent upregulation | –
Cc1ccc(F)c(NC(=O)Nc2ccc(-c3cccc4[nH]nc(N)c34)cc2)c1 [Linifanib (ABT-869), Linifanib] | 0.3392 | – | – | 0.4633
